Experimental data from publication PMC8602706.
Results are given in words; binding and its absence hold for the method and conditions named. Binding seen in cells or lysates may run through a third protein. Some entries that bind do so weakly or less than the wild type.

By UniProt entry, the sequences of proteins in these tests, tags left out.
UniProt O15047: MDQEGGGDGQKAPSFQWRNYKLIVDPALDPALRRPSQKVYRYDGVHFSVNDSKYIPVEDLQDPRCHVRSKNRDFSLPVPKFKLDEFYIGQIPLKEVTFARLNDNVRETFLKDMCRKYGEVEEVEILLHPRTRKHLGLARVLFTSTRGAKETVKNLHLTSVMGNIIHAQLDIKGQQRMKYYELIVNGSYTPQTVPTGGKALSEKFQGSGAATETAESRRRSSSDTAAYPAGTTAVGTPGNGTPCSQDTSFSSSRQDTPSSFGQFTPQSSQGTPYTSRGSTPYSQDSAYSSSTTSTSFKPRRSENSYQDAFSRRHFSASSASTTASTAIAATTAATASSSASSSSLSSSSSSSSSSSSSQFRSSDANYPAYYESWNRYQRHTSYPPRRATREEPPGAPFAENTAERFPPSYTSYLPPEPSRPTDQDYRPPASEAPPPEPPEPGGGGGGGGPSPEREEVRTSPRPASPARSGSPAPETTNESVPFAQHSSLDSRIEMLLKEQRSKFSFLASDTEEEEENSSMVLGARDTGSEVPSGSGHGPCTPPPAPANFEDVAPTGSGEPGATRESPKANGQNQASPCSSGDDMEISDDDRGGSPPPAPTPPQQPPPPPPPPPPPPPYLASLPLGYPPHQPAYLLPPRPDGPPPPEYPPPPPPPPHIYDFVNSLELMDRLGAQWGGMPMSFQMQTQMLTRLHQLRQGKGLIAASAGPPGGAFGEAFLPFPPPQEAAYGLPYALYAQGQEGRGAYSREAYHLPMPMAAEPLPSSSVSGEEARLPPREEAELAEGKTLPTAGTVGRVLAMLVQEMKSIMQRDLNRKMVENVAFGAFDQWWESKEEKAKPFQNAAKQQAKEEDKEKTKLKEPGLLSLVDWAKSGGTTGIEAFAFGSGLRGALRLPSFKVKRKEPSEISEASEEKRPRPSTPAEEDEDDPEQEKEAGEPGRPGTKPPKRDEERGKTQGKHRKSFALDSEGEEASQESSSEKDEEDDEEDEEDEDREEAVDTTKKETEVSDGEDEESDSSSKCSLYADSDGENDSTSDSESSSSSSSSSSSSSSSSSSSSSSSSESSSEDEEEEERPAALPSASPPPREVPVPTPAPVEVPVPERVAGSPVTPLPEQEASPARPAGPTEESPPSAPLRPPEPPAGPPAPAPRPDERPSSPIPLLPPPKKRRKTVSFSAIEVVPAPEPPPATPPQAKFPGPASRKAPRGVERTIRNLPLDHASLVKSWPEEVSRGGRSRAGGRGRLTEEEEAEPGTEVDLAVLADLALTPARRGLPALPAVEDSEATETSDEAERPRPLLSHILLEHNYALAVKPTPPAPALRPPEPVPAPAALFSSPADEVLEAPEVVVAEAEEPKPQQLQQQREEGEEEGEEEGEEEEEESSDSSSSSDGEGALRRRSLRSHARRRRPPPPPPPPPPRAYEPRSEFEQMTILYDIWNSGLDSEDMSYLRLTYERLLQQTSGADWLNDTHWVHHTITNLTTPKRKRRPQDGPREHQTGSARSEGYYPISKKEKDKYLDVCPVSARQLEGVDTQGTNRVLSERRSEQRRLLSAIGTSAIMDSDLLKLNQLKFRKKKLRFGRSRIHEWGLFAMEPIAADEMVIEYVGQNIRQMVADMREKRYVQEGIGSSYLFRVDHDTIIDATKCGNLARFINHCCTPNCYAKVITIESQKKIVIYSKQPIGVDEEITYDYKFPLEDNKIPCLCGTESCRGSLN
UniProt O14980: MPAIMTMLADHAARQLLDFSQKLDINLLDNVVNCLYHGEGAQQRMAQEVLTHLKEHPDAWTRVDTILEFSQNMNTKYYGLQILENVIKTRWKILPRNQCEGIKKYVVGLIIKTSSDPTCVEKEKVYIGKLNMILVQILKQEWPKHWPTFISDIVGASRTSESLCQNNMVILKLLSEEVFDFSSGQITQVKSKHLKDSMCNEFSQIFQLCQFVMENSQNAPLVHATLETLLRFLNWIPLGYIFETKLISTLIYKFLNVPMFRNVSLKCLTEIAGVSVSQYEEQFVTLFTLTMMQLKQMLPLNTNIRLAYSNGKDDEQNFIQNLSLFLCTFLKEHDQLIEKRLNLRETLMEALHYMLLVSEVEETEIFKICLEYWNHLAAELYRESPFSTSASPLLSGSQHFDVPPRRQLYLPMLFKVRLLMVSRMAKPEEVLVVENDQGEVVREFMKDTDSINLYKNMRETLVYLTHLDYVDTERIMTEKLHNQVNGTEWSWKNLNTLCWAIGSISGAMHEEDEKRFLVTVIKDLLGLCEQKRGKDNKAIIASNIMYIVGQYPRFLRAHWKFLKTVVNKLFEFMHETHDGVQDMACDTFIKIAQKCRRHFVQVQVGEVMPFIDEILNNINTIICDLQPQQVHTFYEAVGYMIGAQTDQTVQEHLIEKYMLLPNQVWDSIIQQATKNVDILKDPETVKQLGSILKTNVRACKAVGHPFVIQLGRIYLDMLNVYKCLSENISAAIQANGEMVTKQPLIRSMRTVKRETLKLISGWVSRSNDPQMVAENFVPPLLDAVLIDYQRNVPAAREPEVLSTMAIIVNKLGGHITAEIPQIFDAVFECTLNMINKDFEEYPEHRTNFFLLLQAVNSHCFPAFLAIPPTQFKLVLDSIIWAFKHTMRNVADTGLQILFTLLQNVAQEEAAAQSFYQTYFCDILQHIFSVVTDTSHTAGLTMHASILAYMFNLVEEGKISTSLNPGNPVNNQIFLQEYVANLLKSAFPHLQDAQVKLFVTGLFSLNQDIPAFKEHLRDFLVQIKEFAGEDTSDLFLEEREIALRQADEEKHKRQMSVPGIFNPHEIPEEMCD

Assays:
[1] = target: DPY30 (human (endogenous in HCT116)) (UniProt Q9C005); assay: co-IP; endogenous immune complexes precipitated from lysates (mild lysis buffer, washed four times) of shCTRL and shABHD5 HCT116 cells, immunoblot of the partner; YAP/TEAD1 also compared in PNPLA2-knockdown cells
[2] = target: SET1A (human (endogenous in HCT116)) (UniProt O15047); assay: co-IP; endogenous proteins precipitated from nuclear lysates / nuclear protein of control (shCTRL) and ABHD5-knockdown (shABHD5) HCT116 cells with an antibody to the bait (mouse IgG as control), western blot of the partner; β-Catenin/TCF4 also compared in PNPLA2-knockdown cells
[3] = target: YAP (human (endogenous in HCT116)) (UniProt P46937); assay: co-IP; endogenous immune complexes precipitated from lysates (mild lysis buffer, washed four times) of shCTRL and shABHD5 HCT116 cells, immunoblot of the partner; YAP/TEAD1 also compared in PNPLA2-knockdown cells

| Substance | binding [1] | binding [2] | binding [3] |
| --- | --- | --- | --- |
| YAP (from UniProt P46937 1-504) | binds | binds |  |
| CRM1 (from UniProt O14980 1-1071) |  |  | binds |
